{"source": "patent US20020065219A1", "about": "“Water soluble thiazolyl peptide derivatives” (priority 2000, published 2002)", "note": "Some entries share one result that the patent states for a list of compounds. At least one compound was matched to its structure with a doubt left.", "data": [{"tested_on": "Staphylococcus aureus A15090", "design": "species or system female ICR mice", "conditions": "mouse, in vivo", "units": {"PD50 (dose which protects 50% of mice from mortality)": "mg/kg"}, "values": [{"smiles": "CO/C(C)=C1/NC(=O)C(C(C)O)NC(=O)c2csc(n2)-c2cc(O)c(-c3nc(C(=O)NC(CSCC(=O)O)C(N)=O)cs3)nc2-c2csc(n2)C2COC(=O)c3c4c5c(cccc5n3O)COC(=O)C(O[C@H]3C[C@](C)(O)[C@H](N(C)C)[C@H](C)O3)C(OC4)C(NC(=O)c3csc1n3)c1nc(cs1)C(=O)N2", "note": "(stereo partly shown) [Example 4]", "PD50 (dose which protects 50% of mice from mortality)": "> 10"}, {"smiles": "CO/C(C)=C1/NC(=O)C(C(C)O)NC(=O)c2csc(n2)-c2cc(O)c(-c3nc(C(=O)NC(CNCCN(CCN)CCN)C(N)=O)cs3)nc2-c2csc(n2)C2COC(=O)c3c4c5c(cccc5n3O)COC(=O)C(O[C@H]3C[C@](C)(O)[C@H](N(C)C)[C@H](C)O3)C(OC4)C(NC(=O)c3csc1n3)c1nc(cs1)C(=O)N2", "note": "(stereo partly shown) [Example 12]", "PD50 (dose which protects 50% of mice from mortality)": "> 10"}, {"smiles": "CO/C(C)=C1/NC(=O)C(C(C)O)NC(=O)c2csc(n2)-c2cc(O)c(-c3nc(C(=O)NC(CNCCNC(C)=O)C(N)=O)cs3)nc2-c2csc(n2)C2COC(=O)c3c4c5c(cccc5n3O)COC(=O)C(O[C@H]3C[C@](C)(O)[C@H](N(C)C)[C@H](C)O3)C(OC4)C(NC(=O)c3csc1n3)c1nc(cs1)C(=O)N2", "note": "(stereo partly shown) [Example 16]", "PD50 (dose which protects 50% of mice from mortality)": "> 10"}, {"smiles": "CCNCCN(CC)CC(NC(=O)c1csc(-c2nc3c(cc2O)-c2nc(cs2)C(=O)NC(C(C)O)C(=O)N/C(=C(\\C)OC)c2nc(cs2)C(=O)NC2c4nc(cs4)C(=O)NC(COC(=O)c4c5c6c(cccc6n4O)COC(=O)C(O[C@H]4C[C@](C)(O)[C@H](N(C)C)[C@H](C)O4)C2OC5)c2nc-3cs2)n1)C(N)=O", "note": "(stereo partly shown) [Example 25]", "PD50 (dose which protects 50% of mice from mortality)": "> 10"}, {"smiles": "CO/C(C)=C1/NC(=O)C(C(C)O)NC(=O)c2csc(n2)-c2cc(O)c(-c3nc(C(=O)NC(CN(C)CC(O)C(O)C(O)C(O)CO)C(N)=O)cs3)nc2-c2csc(n2)C2COC(=O)c3c4c5c(cccc5n3O)COC(=O)C(O[C@H]3C[C@](C)(O)[C@H](N(C)C)[C@H](C)O3)C(OC4)C(NC(=O)c3csc1n3)c1nc(cs1)C(=O)N2", "note": "(stereo partly shown) [Example 31]", "PD50 (dose which protects 50% of mice from mortality)": "> 10"}, {"smiles": "CO/C(C)=C1/NC(=O)C(C(C)O)NC(=O)c2csc(n2)-c2cc(O)c(-c3nc(C(=O)NC(CN4CCN(CC(=O)O)CC4)C(N)=O)cs3)nc2-c2csc(n2)C2COC(=O)c3c4c5c(cccc5n3O)COC(=O)C(O[C@H]3C[C@](C)(O)[C@H](N(C)C)[C@H](C)O3)C(OC4)C(NC(=O)c3csc1n3)c1nc(cs1)C(=O)N2", "note": "(stereo partly shown) [Example 39]", "PD50 (dose which protects 50% of mice from mortality)": "> 10"}, {"smiles": "CO/C(C)=C1/NC(=O)C(C(C)O)NC(=O)c2csc(n2)-c2cc(O)c(-c3nc(C(=O)NC(CSCCC(=O)O)C(N)=O)cs3)nc2-c2csc(n2)C2COC(=O)c3c4c5c(cccc5n3O)COC(=O)C(O[C@H]3C[C@](C)(O)[C@H](N(C)C)[C@H](C)O3)C(OC4)C(NC(=O)c3csc1n3)c1nc(cs1)C(=O)N2", "note": "(stereo partly shown) [Example 40]", "PD50 (dose which protects 50% of mice from mortality)": "> 10"}, {"smiles": "CO/C(C)=C1/NC(=O)C(C(C)O)NC(=O)c2csc(n2)-c2cc(O)c(-c3nc(C(=O)NC(CSC(CC(=O)O)C(=O)O)C(N)=O)cs3)nc2-c2csc(n2)C2COC(=O)c3c4c5c(cccc5n3O)COC(=O)C(O[C@H]3C[C@](C)(O)[C@H](N(C)C)[C@H](C)O3)C(OC4)C(NC(=O)c3csc1n3)c1nc(cs1)C(=O)N2", "note": "(stereo partly shown) [Example 42]", "PD50 (dose which protects 50% of mice from mortality)": "> 10"}, {"smiles": "COC(C)=C1NC(=O)C(C(C)O)NC(=O)c2csc(n2)-c2cc(O)c(-c3nc(C(=O)NC(CSCC4NC(=O)NC4=O)C(N)=O)cs3)nc2-c2csc(n2)C2COC(=O)c3c4c5c(cccc5n3O)COC(=O)C(OC3CC(C)(O)C(N(C)C)C(C)O3)C(OC4)C(NC(=O)c3csc1n3)c1nc(cs1)C(=O)N2", "note": "(stereo not shown) [Example 45]", "PD50 (dose which protects 50% of mice from mortality)": "> 10"}, {"smiles": "CO/C(C)=C1/NC(=O)C(C(C)O)NC(=O)c2csc(n2)-c2cc(O)c(-c3nc(C(=O)NC(CSCCS(=O)(=O)O)C(N)=O)cs3)nc2-c2csc(n2)C2COC(=O)c3c4c5c(cccc5n3O)COC(=O)C(O[C@H]3C[C@](C)(O)[C@H](N(C)C)[C@H](C)O3)C(OC4)C(NC(=O)c3csc1n3)c1nc(cs1)C(=O)N2", "note": "(stereo partly shown) [Example 46]", "PD50 (dose which protects 50% of mice from mortality)": "> 10"}, {"smiles": "CO/C(C)=C1/NC(=O)C(C(C)O)NC(=O)c2csc(n2)-c2cc(O)c(-c3nc(C(=O)NC(CSCCc4nnn[nH]4)C(N)=O)cs3)nc2-c2csc(n2)C2COC(=O)c3c4c5c(cccc5n3O)COC(=O)C(O[C@H]3C[C@](C)(O)[C@H](N(C)C)[C@H](C)O3)C(OC4)C(NC(=O)c3csc1n3)c1nc(cs1)C(=O)N2", "note": "(stereo partly shown) [Example 47]", "PD50 (dose which protects 50% of mice from mortality)": "> 10"}, {"smiles": "CO/C(C)=C1/NC(=O)C(C(C)O)NC(=O)c2csc(n2)-c2cc(O)c(-c3nc(C(=O)NC(CNCCCN4CCN(C)CC4)C(N)=O)cs3)nc2-c2csc(n2)C2COC(=O)c3c4c5c(cccc5n3O)COC(=O)C(O[C@H]3C[C@](C)(O)[C@H](N(C)C)[C@H](C)O3)C(OC4)C(NC(=O)c3csc1n3)c1nc(cs1)C(=O)N2", "note": "(stereo partly shown) [Example 51]", "PD50 (dose which protects 50% of mice from mortality)": "> 10"}, {"smiles": "CO/C(C)=C1/NC(=O)C(C(C)O)NC(=O)c2csc(n2)-c2cc(O)c(-c3nc(C(=O)NC(CNCCOCCOCCOCCN)C(N)=O)cs3)nc2-c2csc(n2)C2COC(=O)c3c4c5c(cccc5n3O)COC(=O)C(O[C@H]3C[C@](C)(O)[C@H](N(C)C)[C@H](C)O3)C(OC4)C(NC(=O)c3csc1n3)c1nc(cs1)C(=O)N2", "note": "(stereo partly shown) [Example 58]", "PD50 (dose which protects 50% of mice from mortality)": "> 10"}, {"smiles": "COC(C)=C1NC(=O)C(C(C)O)NC(=O)c2csc(n2)-c2cc(O)c(-c3nc(C(=O)NC(CNC(CO)Cc4c[nH]cn4)C(N)=O)cs3)nc2-c2csc(n2)C2COC(=O)c3c4c5c(cccc5n3O)COC(=O)C(OC3CC(C)(O)C(N(C)C)C(C)O3)C(OC4)C(NC(=O)c3csc1n3)c1nc(cs1)C(=O)N2", "note": "(stereo not shown) [Example 66]", "PD50 (dose which protects 50% of mice from mortality)": "> 10"}, {"smiles": "COC(C)=C1NC(=O)C(C(C)O)NC(=O)c2csc(n2)-c2cc(O)c(-c3nc(C(=O)NC(CN(C)CCCNc4ccncc4)C(N)=O)cs3)nc2-c2csc(n2)C2COC(=O)c3c4c5c(cccc5n3O)COC(=O)C(OC3CC(C)(O)C(N(C)C)C(C)O3)C(OC4)C(NC(=O)c3csc1n3)c1nc(cs1)C(=O)N2", "note": "(stereo not shown) [Example 83]", "PD50 (dose which protects 50% of mice from mortality)": "> 10"}, {"smiles": "COC(C)=C1NC(=O)C(C(C)O)NC(=O)c2csc(n2)-c2cc(O)c(-c3nc(C(=O)NC(CSCC(=O)O)C(N)=O)cs3)nc2-c2csc(n2)C2COC(=O)c3c4c5c(cccc5n3O)COC(=O)C(O)C(OC4)C(NC(=O)c3csc1n3)c1nc(cs1)C(=O)N2", "note": "(stereo not shown) [Example 95]", "PD50 (dose which protects 50% of mice from mortality)": "> 10"}, {"smiles": "C/C=C1\\NC(=O)C(C(C)O)NC(=O)c2csc(n2)-c2cc(O)c(-c3nc(C(=O)NC(CSCCN(CC)CC)C(N)=O)cs3)nc2-c2csc(n2)C2CSC(=O)c3[nH]c4cccc(c4c3C)COC(=O)C(O)CC(NC(=O)c3csc1n3)c1nc(cs1)C(=O)N2", "note": "(stereo not shown) [Example 102]", "PD50 (dose which protects 50% of mice from mortality)": "> 10"}, {"smiles": "CO/C(C)=C1/NC(=O)C(C(C)O)NC(=O)c2csc(n2)-c2cc(O)c(-c3nc(C(=O)NC(CS(=O)(=O)C4C[N+]5([O-])CCC4CC5)C(N)=O)cs3)nc2-c2csc(n2)C2COC(=O)c3c4c5c(cccc5n3O)COC(=O)C(OC3CC(C)(O)C([N+](C)(C)[O-])C(C)O3)C(OC4)C(NC(=O)c3csc1n3)c1nc(cs1)C(=O)N2", "note": "(stereo not shown) [Example 105]", "PD50 (dose which protects 50% of mice from mortality)": "> 10"}, {"smiles": "CNC(=O)On1c2c3c4c(cccc41)COC(=O)C(OC1CC(C)(O)C(N(C)C)C(C)O1)C(OC3)C1NC(=O)c3csc(n3)/C(=C(/C)OC)NC(=O)C(C(C)O)NC(=O)c3csc(n3)-c3cc(O)c(-c4nc(C(=O)NC(CN(CCN(C)C)C(=O)NC)C(N)=O)cs4)nc3-c3csc(n3)C(COC2=O)NC(=O)c2csc1n2", "note": "(stereo not shown) [Example 111]", "PD50 (dose which protects 50% of mice from mortality)": "> 10"}]}]}
